Assay results: the supplement of paper PMC11732987, “Enantioselective OTUD7B fragment discovery through chemoproteomics screening and high-throughput optimisation” (Communications Chemistry, 2025)
The list shows a part of the results. The data scatter; read single values as rough.

Protein sequences, listed by entry. Tags and fused reporters are not part of them. Lines headed by an entry give the natural chain unless they say otherwise; changes in a name come on top. Residues count along the entry.
UniProt P46013, 765-786: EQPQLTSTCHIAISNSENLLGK
UniProt Q9NU22, 1108-1130: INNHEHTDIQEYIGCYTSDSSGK
UniProt Q9BQP7, 64-84: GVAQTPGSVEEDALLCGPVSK
UniProt P21741: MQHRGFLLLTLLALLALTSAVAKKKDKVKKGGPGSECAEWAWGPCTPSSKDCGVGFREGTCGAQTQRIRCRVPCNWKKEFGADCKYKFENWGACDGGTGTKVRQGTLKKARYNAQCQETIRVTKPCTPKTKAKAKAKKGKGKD
UniProt Q9NXC5: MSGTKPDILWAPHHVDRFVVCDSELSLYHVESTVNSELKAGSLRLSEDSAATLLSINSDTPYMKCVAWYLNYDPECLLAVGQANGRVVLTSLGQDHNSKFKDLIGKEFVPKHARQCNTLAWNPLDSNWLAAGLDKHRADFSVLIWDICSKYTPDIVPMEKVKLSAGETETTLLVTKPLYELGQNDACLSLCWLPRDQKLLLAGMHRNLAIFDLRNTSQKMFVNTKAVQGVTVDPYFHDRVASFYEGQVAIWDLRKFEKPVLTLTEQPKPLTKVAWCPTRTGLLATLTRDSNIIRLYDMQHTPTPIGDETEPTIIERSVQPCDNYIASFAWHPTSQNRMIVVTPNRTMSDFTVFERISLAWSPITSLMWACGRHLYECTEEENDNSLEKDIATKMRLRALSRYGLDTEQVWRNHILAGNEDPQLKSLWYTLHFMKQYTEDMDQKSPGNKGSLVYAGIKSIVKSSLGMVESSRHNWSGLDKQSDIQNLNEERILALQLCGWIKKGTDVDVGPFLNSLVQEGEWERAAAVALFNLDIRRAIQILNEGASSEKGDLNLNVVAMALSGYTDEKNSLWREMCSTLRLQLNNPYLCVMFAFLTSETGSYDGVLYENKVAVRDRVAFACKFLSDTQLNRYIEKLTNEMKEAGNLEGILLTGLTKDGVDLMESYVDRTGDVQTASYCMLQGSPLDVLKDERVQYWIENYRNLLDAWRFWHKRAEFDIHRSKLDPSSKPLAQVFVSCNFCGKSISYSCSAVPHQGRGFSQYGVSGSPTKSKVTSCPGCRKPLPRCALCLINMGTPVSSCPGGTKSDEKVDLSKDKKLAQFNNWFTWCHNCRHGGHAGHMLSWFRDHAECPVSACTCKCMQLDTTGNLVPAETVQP
UniProt Q7L2J0, 234-257: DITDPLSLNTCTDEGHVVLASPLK
UniProt P51608: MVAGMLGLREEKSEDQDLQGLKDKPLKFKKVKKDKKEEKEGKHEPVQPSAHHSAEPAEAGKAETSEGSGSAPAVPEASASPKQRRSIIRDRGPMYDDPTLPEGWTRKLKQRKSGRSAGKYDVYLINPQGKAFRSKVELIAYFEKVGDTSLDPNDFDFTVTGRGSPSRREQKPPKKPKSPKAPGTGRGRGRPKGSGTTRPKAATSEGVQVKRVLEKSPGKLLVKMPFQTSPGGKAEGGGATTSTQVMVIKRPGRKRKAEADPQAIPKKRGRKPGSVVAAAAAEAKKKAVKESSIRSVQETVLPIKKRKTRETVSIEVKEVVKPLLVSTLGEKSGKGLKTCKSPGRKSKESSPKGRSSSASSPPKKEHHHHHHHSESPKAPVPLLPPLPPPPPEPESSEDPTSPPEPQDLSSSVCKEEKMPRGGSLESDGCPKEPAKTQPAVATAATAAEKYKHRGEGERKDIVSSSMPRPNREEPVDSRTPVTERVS
UniProt Q96EY8, 117-136: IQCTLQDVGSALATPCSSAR
UniProt Q9BU76: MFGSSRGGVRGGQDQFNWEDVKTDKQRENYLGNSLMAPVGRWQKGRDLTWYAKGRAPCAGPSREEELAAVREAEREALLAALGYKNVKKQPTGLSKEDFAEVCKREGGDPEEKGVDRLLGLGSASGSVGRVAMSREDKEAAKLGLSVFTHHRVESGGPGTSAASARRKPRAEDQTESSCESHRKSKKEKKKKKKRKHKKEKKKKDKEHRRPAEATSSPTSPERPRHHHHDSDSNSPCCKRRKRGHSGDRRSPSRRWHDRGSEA
UniProt Q9Y4C4: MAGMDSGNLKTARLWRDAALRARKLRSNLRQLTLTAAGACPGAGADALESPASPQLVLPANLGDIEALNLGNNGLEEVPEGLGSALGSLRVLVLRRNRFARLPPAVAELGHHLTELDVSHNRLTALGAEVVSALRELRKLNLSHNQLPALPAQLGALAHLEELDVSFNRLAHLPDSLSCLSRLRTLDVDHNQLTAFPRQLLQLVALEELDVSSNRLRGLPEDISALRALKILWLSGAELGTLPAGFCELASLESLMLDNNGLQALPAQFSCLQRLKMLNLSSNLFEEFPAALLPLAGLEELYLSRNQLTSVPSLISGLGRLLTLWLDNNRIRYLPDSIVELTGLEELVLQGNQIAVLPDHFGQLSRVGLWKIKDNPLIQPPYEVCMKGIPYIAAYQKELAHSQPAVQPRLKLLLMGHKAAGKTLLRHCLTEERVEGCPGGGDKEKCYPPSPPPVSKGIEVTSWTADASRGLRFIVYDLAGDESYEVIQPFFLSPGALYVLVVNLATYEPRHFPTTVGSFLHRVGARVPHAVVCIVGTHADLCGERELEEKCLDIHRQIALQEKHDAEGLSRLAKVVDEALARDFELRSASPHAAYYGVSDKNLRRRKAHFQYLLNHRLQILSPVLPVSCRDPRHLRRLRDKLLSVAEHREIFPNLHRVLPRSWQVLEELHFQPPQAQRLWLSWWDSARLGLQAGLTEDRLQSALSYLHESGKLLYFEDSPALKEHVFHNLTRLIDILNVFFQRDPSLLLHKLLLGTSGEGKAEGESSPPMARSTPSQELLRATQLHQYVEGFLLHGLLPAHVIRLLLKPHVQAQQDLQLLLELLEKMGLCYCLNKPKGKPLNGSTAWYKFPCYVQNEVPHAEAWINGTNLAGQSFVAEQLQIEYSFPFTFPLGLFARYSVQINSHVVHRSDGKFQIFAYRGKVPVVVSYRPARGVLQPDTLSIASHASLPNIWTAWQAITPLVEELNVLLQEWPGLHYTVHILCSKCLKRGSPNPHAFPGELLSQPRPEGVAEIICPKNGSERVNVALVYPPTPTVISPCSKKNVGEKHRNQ
UniProt Q9H944: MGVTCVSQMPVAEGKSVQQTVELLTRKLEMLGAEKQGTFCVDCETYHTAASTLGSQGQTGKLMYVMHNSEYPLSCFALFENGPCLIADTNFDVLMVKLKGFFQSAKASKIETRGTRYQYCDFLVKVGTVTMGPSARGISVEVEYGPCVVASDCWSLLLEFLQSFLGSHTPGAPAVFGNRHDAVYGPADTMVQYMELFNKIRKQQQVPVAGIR
UniProt Q14676, 1726-1749: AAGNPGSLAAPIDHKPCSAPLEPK
UniProt P10620: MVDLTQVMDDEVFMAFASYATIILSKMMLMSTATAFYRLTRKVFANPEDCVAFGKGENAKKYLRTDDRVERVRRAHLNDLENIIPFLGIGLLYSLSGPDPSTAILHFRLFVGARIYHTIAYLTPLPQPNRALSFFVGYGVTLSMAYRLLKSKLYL
UniProt Q9H7H0: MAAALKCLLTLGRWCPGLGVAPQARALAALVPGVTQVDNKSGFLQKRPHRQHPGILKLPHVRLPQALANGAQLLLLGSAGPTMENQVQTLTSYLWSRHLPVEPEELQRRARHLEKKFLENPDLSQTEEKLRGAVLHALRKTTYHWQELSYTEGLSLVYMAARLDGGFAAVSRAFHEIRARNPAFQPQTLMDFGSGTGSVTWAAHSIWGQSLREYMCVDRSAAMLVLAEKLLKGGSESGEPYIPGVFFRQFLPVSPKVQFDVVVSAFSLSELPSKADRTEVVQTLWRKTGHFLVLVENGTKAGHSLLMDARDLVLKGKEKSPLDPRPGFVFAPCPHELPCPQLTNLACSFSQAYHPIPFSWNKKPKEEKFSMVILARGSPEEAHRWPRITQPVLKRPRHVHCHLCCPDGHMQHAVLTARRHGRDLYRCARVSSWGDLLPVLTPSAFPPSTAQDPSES
UniProt Q9UL63, whole entry, looked up: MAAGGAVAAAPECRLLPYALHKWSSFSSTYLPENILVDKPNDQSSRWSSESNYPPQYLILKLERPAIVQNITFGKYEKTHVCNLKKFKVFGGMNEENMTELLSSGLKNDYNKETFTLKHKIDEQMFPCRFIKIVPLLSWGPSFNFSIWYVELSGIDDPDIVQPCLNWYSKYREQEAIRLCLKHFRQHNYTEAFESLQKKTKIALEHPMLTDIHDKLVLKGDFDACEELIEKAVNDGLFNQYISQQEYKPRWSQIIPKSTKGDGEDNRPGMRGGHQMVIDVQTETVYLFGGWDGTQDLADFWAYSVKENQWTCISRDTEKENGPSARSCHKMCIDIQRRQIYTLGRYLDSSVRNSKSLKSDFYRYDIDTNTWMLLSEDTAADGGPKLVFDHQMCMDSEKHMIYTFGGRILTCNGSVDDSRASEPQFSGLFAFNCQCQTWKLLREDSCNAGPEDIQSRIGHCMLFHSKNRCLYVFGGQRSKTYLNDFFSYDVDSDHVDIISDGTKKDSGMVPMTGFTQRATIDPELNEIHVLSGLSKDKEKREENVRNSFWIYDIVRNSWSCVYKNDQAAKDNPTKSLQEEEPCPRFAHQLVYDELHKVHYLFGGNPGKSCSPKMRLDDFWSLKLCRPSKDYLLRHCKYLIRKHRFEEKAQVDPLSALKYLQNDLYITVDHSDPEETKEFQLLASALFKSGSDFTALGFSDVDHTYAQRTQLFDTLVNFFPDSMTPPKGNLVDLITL
UniProt A1L020: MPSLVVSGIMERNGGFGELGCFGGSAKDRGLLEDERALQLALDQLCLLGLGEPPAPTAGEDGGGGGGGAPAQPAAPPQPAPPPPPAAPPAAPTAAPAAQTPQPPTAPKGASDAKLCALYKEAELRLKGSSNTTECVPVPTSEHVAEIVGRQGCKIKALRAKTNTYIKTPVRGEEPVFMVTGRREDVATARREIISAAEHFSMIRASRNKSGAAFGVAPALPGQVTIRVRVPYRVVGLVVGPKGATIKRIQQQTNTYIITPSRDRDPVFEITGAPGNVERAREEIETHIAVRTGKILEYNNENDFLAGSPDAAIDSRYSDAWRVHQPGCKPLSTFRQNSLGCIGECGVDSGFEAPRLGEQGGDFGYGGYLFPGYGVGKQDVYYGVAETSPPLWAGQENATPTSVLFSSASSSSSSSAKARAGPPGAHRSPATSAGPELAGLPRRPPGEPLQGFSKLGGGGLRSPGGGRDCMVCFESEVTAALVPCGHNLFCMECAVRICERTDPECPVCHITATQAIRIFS
UniProt Q00013: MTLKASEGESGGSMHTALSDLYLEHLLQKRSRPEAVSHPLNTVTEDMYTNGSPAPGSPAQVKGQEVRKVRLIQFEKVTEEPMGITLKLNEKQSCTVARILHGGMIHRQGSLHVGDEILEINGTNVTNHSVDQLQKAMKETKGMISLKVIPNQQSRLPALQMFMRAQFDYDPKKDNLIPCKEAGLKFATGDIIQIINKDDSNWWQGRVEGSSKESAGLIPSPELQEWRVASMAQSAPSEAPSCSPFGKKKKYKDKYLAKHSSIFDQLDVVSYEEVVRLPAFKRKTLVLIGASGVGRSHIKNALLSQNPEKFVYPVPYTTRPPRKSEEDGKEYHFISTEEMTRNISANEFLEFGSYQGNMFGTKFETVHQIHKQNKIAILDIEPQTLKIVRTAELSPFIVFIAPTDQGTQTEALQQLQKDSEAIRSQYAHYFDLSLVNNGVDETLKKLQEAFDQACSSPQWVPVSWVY
UniProt P29372, 28-58: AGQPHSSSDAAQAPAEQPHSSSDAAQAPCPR
UniProt Q86U44, 489-508: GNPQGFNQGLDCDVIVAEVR
UniProt Q5TGZ0: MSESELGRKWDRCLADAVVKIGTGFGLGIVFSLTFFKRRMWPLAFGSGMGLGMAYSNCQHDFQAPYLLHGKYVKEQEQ
UniProt Q8IY33: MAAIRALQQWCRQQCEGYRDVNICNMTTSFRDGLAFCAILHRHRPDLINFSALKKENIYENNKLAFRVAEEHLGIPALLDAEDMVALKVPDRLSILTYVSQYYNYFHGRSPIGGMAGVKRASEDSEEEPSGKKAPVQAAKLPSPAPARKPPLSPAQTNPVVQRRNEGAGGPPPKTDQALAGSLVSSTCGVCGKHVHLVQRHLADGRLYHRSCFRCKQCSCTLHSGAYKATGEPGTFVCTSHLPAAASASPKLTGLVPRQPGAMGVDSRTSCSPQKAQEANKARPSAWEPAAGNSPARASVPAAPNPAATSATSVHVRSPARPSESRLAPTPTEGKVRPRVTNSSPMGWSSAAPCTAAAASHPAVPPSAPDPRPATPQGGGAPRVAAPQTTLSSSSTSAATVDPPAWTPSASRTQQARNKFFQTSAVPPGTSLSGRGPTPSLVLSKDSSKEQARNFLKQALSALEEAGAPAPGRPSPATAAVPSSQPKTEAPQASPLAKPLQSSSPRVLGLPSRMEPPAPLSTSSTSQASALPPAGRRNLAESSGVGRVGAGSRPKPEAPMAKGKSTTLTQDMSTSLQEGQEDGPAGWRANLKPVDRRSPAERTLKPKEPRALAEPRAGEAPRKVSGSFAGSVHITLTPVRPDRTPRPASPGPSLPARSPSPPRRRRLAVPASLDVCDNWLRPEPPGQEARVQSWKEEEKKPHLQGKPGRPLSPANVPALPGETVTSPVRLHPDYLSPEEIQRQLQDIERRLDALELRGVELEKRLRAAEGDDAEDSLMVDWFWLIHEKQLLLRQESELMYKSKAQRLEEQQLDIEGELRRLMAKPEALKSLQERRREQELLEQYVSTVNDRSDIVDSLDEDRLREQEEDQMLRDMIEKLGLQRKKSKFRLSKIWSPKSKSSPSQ

Tests used:
[1] = compound: ClCC(=O)N[C@@H]1CCCc2ccccc12; experiment: log2 mean competition ratio of IA-DTB cysteine labelling (DMSO/compound) (log2 ratio); higher = stronger cysteine engagement by compound; conditions: treatment time: 4 h, cell line lysate: HEK293T
Experimental: (§1)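 IA-DTB competitive cysteine chemoproteomics in HEK293T RIPA lysate. Lysates were treated with compound 29 or 30 at 50 or 200 µM for 4 h, then IA-DTB (500 µM, 1 h), trypsin-digested, NeutrAvidin-enriched and analysed by diaPASEF. Competition ratio = intensity DMSO / intensity compound (n=4 treated, n=64 DMSO); binding: mean log2 CR ≥ 1 and p ≤ 0.05 plus QC filters. Target is the cysteine site.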

[2] = compound: ClCC(=O)N[C@H]1CCCc2ccccc12; experiment: as above; conditions: treatment time: 4 h, cell line lysate: HEK293T
Experimental: as §1

Row | Target | log2 mean competition ratio ([1]; 50 µM) | log2 mean competition ratio ([1]; 200 µM) | log2 mean competition ratio ([2]; 50 µM) | log2 mean competition ratio ([2]; 200 µM)
1 | METTL16 C253 (UniProt Q86W50) | 0.395 | 0.5 | – | –
2 | MOCOS C686 (UniProt Q96EN8) | -0.169 | 0.192 | – | –
3 | MED13 C1399 (UniProt Q9UHV7) | – | -0.313 | – | –
4 | MKI67 C773 (UniProt P46013) | -0.0246 | 0.0637 | – | –
5 | MGA C1313 (UniProt Q8IWI9) | 0.0886 | 0.208 | – | –
6 | MID2 C630 | 0.0768 | -0.0127 | – | –
7 | MIS12 C104 (UniProt Q9H081) | 0.00705 | -0.206 | – | –
8 | MLXIP C8 (UniProt Q9HAP2) | -0.0189 | 0.0382 | – | –
9 | MDN1 C1122 (UniProt Q9NU22) | 0.00904 | -0.0828 | – | –
10 | MORF4L2 C165 (UniProt Q15014) | -0.261 | 0.397 | – | –
11 | MGME1 C79 (UniProt Q9BQP7) | -0.308 | -0.0393 | – | –
12 | MDK C61 (UniProt P21741) | 0.0717 | 0.471 | – | –
13 | MPHOSPH8 C753 (UniProt Q99549) | 0.071 | -0.0927 | – | –
14 | MND1 C147 (UniProt Q9BWT6) | 0.282 | 0.0231 | – | –
15 | MKI67 C1285 (UniProt P46013) | 0.0547 | 0.13 | – | –
16 | MED28 C80 (UniProt Q9H204) | 0.00227 | -0.0828 | – | –
17 | MIOS C576 (UniProt Q9NXC5) | -0.137 | -0.19 | – | –
18 | MOB3B C87 (UniProt Q86TA1) | 0.00583 | 0.133 | – | –
19 | MEPCE C244 (UniProt Q7L2J0) | 0.0576 | -0.267 | – | –
20 | MECP2 C429 (UniProt P51608) | -0.152 | -0.116 | – | –
21 | MRC2 C1243 (UniProt Q9UBG0) | -0.105 | -0.0417 | – | –

Whole records, quoted from the list. Order of values: log2 mean competition ratio ([1]; 50 µM) | log2 mean competition ratio ([1]; 200 µM) | log2 mean competition ratio ([2]; 50 µM) | log2 mean competition ratio ([2]; 200 µM)
MIOS C576 (UniProt Q9NXC5) in the list: -0.137 | -0.19 | – | –
METTL16 C253 (UniProt Q86W50) in the list: 0.395 | 0.5 | – | –

Further records:

Row | Target | log2 mean competition ratio ([1]; 50 µM) | log2 mean competition ratio ([1]; 200 µM) | log2 mean competition ratio ([2]; 50 µM) | log2 mean competition ratio ([2]; 200 µM)
22 | METAP2 C135 (UniProt P50579) | 0.19 | -0.13 | – | –
23 | MKNK1 C219 (UniProt Q9BUB5) | -0.656 | 0.162 | – | –
24 | MMAB_(C119,C119,C132,C132) (UniProt Q96EY8) | 0.23 | -0.219 | – | –
25 | MED8 C31 (UniProt Q96G25) | -0.0335 | -0.258 | – | –
26 | MED9 C75 (UniProt Q9NWA0) | -0.239 | -0.0934 | – | –
27 | MRPL16 C167 (UniProt Q9NX20) | 0.355 | -0.0199 | – | –
28 | MKRN1 C98 (UniProt Q9UHC7) | 0.0668 | -0.0148 | – | –
29 | MMTAG2 C58 (UniProt Q9BU76) | -0.0214 | -0.059 | – | –
30 | MED13 C1756 (UniProt Q9UHV7) | 0.022 | 0.143 | – | –
31 | MRM3 C290 (UniProt Q9HC36) | 0.326 | 0.169 | – | –
32 | MPP2 C468 | -0.287 | 0.0781 | – | –
33 | MFHAS1 C385 (UniProt Q9Y4C4) | -0.0215 | 0.356 | – | –
34 | MIS12 C53 (UniProt Q9H081) | -0.206 | -0.193 | – | –
35 | MPP2 C270 | -0.037 | -0.196 | – | –
36 | MON2 C75 (UniProt Q7Z3U7) | -0.0869 | -0.225 | – | –
37 | MGRN1 C528 (UniProt O60291) | 0.0741 | -0.0854 | – | –
38 | MICAL3 C1760 (UniProt Q7RTP6) | 0.368 | -0.513 | -0.371 | -0.157
39 | MED20 C120 (UniProt Q9H944) | 0.711 | 0.339 | -0.16 | 0.0865
40 | MDC1 C1742 (UniProt Q14676) | 0.074 | 0.0204 | 0.157 | -0.0554
41 | MKI67 C1479 (UniProt P46013) | 0.211 | -0.0683 | -0.0198 | -0.0791
42 | MDC1 C26 (UniProt Q14676) | -0.0894 | -0.0727 | 0.106 | 0.00475

Row | Target | log2 mean competition ratio ([1]; 50 µM) | log2 mean competition ratio ([1]; 200 µM) | log2 mean competition ratio ([2]; 50 µM) | log2 mean competition ratio ([2]; 200 µM)
43 | MGST1 C50 (UniProt P10620) | -0.103 | -0.0794 | -0.356 | -0.101
44 | METTL17 C216 (UniProt Q9H7H0) | -0.0173 | -0.137 | -0.0271 | 0.0196
45 | MED28 C93 (UniProt Q9H204) | 0.181 | -0.124 | 0.495 | 0.0154
46 | MKLN1 C582 (UniProt Q9UL63) | 0.24 | -0.0891 | 0.682 | -0.0188
47 | MEX3A C21 (UniProt A1L020) | -0.129 | 0.138 | 0.12 | 0.157
48 | MMTAG2 C103 (UniProt Q9BU76) | -0.0911 | -0.109 | -0.221 | 0.0437
49 | MPP1 C94 (UniProt Q00013) | -0.313 | 0.2 | -0.186 | 0.0868
50 | MPG C56 (UniProt P29372) | -0.0711 | 0.102 | -0.109 | -0.0853
51 | MORC3 C694 (UniProt Q14149) | -0.104 | 0.135 | -0.0238 | 0.0838
52 | METTL3 C500 (UniProt Q86U44) | 0.282 | 0.171 | 0.331 | -0.165
53 | MECR C263 (UniProt Q9BV79) | 0.109 | 0.0499 | 0.179 | 0.0702
54 | MDN1 C2158 (UniProt Q9NU22) | -0.0337 | 0.0724 | 0.0306 | 0.000468
55 | MPG C215 (UniProt P29372) | -0.0483 | 0.0249 | -0.139 | 0.0994
56 | MKI67 C903 (UniProt P46013) | -0.259 | -0.178 | 0.0136 | 0.0118
57 | MKI67 C3199 (UniProt P46013) | 0.273 | 0.328 | 0.204 | 0.134
58 | MICOS10 C13 (UniProt Q5TGZ0) | -0.0389 | -0.153 | 0.673 | 0.122
59 | MPP7 C462 (UniProt Q5T2T1) | 0.425 | 0.0192 | -0.47 | -0.519
60 | MPP2 C334 | -0.162 | -0.00277 | 0.139 | -0.0444
61 | MED19 C163 (UniProt A0JLT2) | -0.0525 | 0.176 | 0.258 | 0.0665
62 | MMAA C100 (UniProt Q8IVH4) | 0.0977 | -0.124 | -0.101 | -0.319
63 | MICALL2 C271 (UniProt Q8IY33) | 0.178 | 0.00157 | 0.0961 | 0.171
